Assay results reported in PubChem BioAssay AID1347076 (National Center for Advancing Translational Sciences (NCATS), 2019).
The campaign covered roughly 400,000 compounds. About 13,000 (3.2%) were called active. Inconclusive means that the source gave no clear call. Such entries were picked first, then a sample of the others. Calls follow the shape of the dose curve; as a rule, active = well fitted cell-killing curve with a large enough effect; inconclusive = small, poorly fitted or top-dose-only effect, or effect the other way; inactive = flat fitted curve, though single readings scatter. Where the call is inconclusive, the potency comes from a doubtful curve fit.

Test: qHTS assay for MDR1-selective chemotherapeutics: Primary screen using the drug-selected MDR subline cells KB-V1; also: nearly all actives have a fitted effect of over 60% in size
Conditions: KB-V1 MDR cells viability, CellTiter-Glo, 72 h; activity change, negative = cytotoxicity: at 46.1 µM (top of the series)
Summary of the method: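 KB-V1 cells (P-gp-expressing MDR subline of KB-3-1) in phenol-red-free DMEM with 10% FBS were exposed to library compounds over a concentration series for 72 h at 37 degrees C. Viability read by CellTiter-Glo luminescence; concentration-effect curves fitted after normalization.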
% is scaled to controls: 0 for no effect and ±100 for the full control effect; potency is read from the fitted curve at half-maximal effect.

Row | Structure (SMILES) | activity change, negative = cytotoxicity | Potency
1 | CCN(c1ccccc1)S(=O)(=O)c1ccc2c(c1)OCCO2 | inactive: 3.19% | 
2 | C=CCn1c(COc2ccc(OC)cc2)nnc1SCn1nnc2ccccc2c1=O |  | active: 20.6 µM
3 | O=C(Nc1cccc(C(=O)N2CCCc3ccccc32)c1)c1ccccc1 |  | active: 20.6 µM
4 | CC(C)c1cc(C(=O)N/N=C/c2ccco2)n[nH]1 | inactive: 6.41% | 
5 | CCCCN1C(=O)C(NC(C)=O)c2cc(Br)ccc21 (configuration not stated) |  | inconclusive: 9.2 µM [cytotoxic, partial curve]
6 | COc1ccc(NC(=O)C[C@H]2C(=O)N(c3ccc(OC)cc3)C[C@@H]2c2ccc(Br)cc2)cc1 |  | inconclusive: 0.517 µM [cytotoxic, full curve, poor fit]
7 | Cc1ccc(C)c2c1cc(C)c1nnc(SCC(=O)N3CCCc4ccccc43)n12 |  | active: 9.2 µM
8 | CCc1nc2ccc(C(=O)Nc3cc(-c4ccccc4)ccc3OC)cn2c1N(C)C(=O)c1cccc(OC)c1 |  | inconclusive: 29.1 µM [cytotoxic, partial curve, poor fit]
9 | CCc1cccc(Nc2c3c(nc4ncnn24)CCC3)c1 |  | active: 18.4 µM
10 | CC(=O)c1cccc(NC(=O)C2CCN(c3nnc(-n4cccc4)s3)CC2)c1 | inactive: 3.02% | 
11 | CCOC(=O)[C@]12CCC=C1N(Cc1cccc3ccccc13)C(=O)[C@H](CC(=O)NCc1ccc(C)o1)C2 |  | active: 11.6 µM
12 | CCN(CC)C(=O)Oc1cc(=O)n(C)c2ccccc12 |  | inconclusive: 16.4 µM [cytotoxic, single point]
13 | CC1(C2(O)CCCCC2)NCCc2ccccc21 (configuration not stated) |  | inconclusive: 32.6 µM [rising, single point]
14 | COc1ccc(CCNS(=O)(=O)c2ccc(-c3ccc(=O)[nH]n3)o2)cc1OC |  | inconclusive: 18.4 µM [rising, single point]
15 | CC(C)C[C@@H]1Cc2[nH][nH]c(=O)c2[C@H](c2ccc(Cl)cc2)O1 |  | inconclusive: 4.61 µM [rising, full curve, poor fit]
16 | COc1ccc(CCNC(=O)Cc2cccs2)cc1 | inactive: 12.5% | 
17 | Cc1ccccc1Cn1c(=O)n(CCCCC(=O)NCc2ccc3c(c2)OCO3)c(=O)c2ccccc21 |  | inconclusive: 23.1 µM [cytotoxic, single point]
18 | Cc1ccc(NC(=O)N[C@H](C(=O)O)C(C)C)c(C)c1 | inactive: 8.04% | 
19 | Cc1occc1C(=O)Nc1nn[nH]n1 | inactive: 3.88% | 
20 | CCOc1ccc(CNCCN2CCCC2)cc1 |  | inconclusive: 7.31 µM [cytotoxic, partial curve]
21 | Cc1cccc(NC(=O)CSc2ccc(-c3ccccn3)nn2)c1C |  | inconclusive: 14.6 µM [cytotoxic, single point]
22 | COc1ccc(C(=O)N2CCC(c3ccccc3)CC2)c(OC)c1OC |  | inconclusive: 16.4 µM [cytotoxic, single point]
23 | CC(C)CNS(=O)(=O)c1ccc(CCC(=O)N2CCN(c3ccc(F)cc3)CC2)cc1 | inactive: -16.6% | 
24 | Cc1ccc(C)c(NC2CCCCC2NS(=O)(=O)c2ccccc2)c1 (configuration not stated) |  | inconclusive: 32.6 µM [cytotoxic, single point]

Looked up by structure from above, 2 records:
Row | Structure (SMILES) | activity change, negative = cytotoxicity | Potency
7 | Cc1ccc(C)c2c1cc(C)c1nnc(SCC(=O)N3CCCc4ccccc43)n12 |  | active: 9.2 µM
23 | CC(C)CNS(=O)(=O)c1ccc(CCC(=O)N2CCN(c3ccc(F)cc3)CC2)cc1 | inactive: -16.6% | 

Additional entries.

Row | Structure (SMILES) | activity change, negative = cytotoxicity | Potency
25 | COc1ccc(-n2ncc(Cl)c(Cl)c2=O)cc1 |  | inconclusive: 25.9 µM [cytotoxic, single point]
26 | CC(C)=CCc1c(O)cc2c(=O)c3ccc(O)cc3oc2c1O |  | inconclusive: 29.1 µM [rising, single point]
27 | COc1ccc([N+](=O)[O-])cc1NC(=O)COC(C)=O |  | inconclusive: 29.1 µM [rising, single point]
28 | Cn1c(=O)[nH]c(=O)c2c1nc(Br)n2C/C=N/Nc1ccccc1 | inactive: -15.4% | 
29 | CS(=O)(=O)c1cccc(C(=O)Nc2ccc(-c3nc4ccccc4[nH]3)cc2)c1 | inactive: 16.2% | 
30 | CCCCn1c(SCC(=O)Nc2cc(C)on2)nnc1-c1cccs1 |  | inconclusive: 9.2 µM [cytotoxic, partial curve]
31 | O=C(C=Cc1ccccc1)c1cccs1 |  | inconclusive: 16.4 µM [cytotoxic, single point]
32 | Cc1ccc(CCNC(=O)C(C)n2nc(C)c3c(C)n(-c4ccccc4)nc3c2=O)cc1 (configuration not stated) | inactive: -14.3% | 
33 | CCN(c1ccccc1)S(=O)(=O)c1ccc(C(=O)Nc2nnc(CSC)o2)cc1 |  | inconclusive: 20.6 µM [cytotoxic, single point]
34 | CCCCNC(=O)c1cc(-c2ccc(F)cc2)on1 |  | active: 16.4 µM
35 | CCCOc1ccc(C(=O)C(c2ccccc2)N2CCOCC2)cc1 (configuration not stated) | inactive: -20.7% | 
36 | COc1ccc(N2CCN(C(=O)C3CCC(Cn4c(=S)[nH]c5ccccc5c4=O)CC3)CC2)cc1 (configuration not stated) |  | active: 2.91 µM
37 | Oc1ccc(Cc2ccc(Cl)cc2)c(O)c1 |  | inconclusive: 32.6 µM [cytotoxic, partial curve, poor fit]
38 | Cc1cc(C(=O)Nc2cccc(C(F)(F)F)c2)c2c(C)nn(-c3cccc(F)c3)c2n1 |  | inconclusive: 13 µM [cytotoxic, partial curve, poor fit]
39 | Cc1nn2c3c(cnc2c1-c1ccc(F)cc1)C(=O)CC(c1ccccc1)C3 (configuration not stated) | inactive: 4.22% | 
40 | CCC(=O)N1c2ccc(S(=O)(=O)CCC(=O)NCCC3=CCCCC3)cc2CC1C (configuration not stated) |  | inconclusive: 20.6 µM [cytotoxic, partial curve]
41 | CSc1nc(C)cc(OCC(=O)N/N=C/c2ccccc2O)n1 | inactive: -38.3% | 
42 | COC(=O)c1cn(-c2ccccc2)nc1-c1cccnc1 |  | inconclusive: 10.3 µM [cytotoxic, partial curve]
43 | CN1CCN(S(=O)C23CC4CC(CC(C4)C2)C3)CC1 (configuration not stated) | inactive: -10.5% | 
44 | Cc1cc(C)c(-c2csc(-c3cc4ccccc4oc3=O)n2)cc1C | inactive: 8.18% | 
45 | CCCN1CCN(CCNC(=O)Nc2cc(Cl)c(OC)cc2OC)CC1 | inactive: 1.61% | 
46 | Cc1ccc2oc(C(=O)N(Cc3nccn3C)C(C)C)c(C)c2c1 |  | inconclusive: 3.26 µM [cytotoxic, full curve, poor fit]
47 | Cc1ccc(S(=O)(=O)N2CCC(C(=O)OCC(=O)N(Cc3ccccc3)C(C)C)CC2)cc1C | inactive: 23.3% | 
48 | CC(CCc1ccccc1)NCC(O)c1cccc([N+](=O)[O-])c1 (configuration not stated) |  | inconclusive: 13 µM [cytotoxic, partial curve, poor fit]

Four entries out of the list, ordered by molar mass, descending:
Row | Structure (SMILES) | activity change, negative = cytotoxicity | Potency
40 | CCC(=O)N1c2ccc(S(=O)(=O)CCC(=O)NCCC3=CCCCC3)cc2CC1C (configuration not stated) |  | inconclusive: 20.6 µM [cytotoxic, partial curve]
28 | Cn1c(=O)[nH]c(=O)c2c1nc(Br)n2C/C=N/Nc1ccccc1 | inactive: -15.4% | 
35 | CCCOc1ccc(C(=O)C(c2ccccc2)N2CCOCC2)cc1 (configuration not stated) | inactive: -20.7% | 
43 | CN1CCN(S(=O)C23CC4CC(CC(C4)C2)C3)CC1 (configuration not stated) | inactive: -10.5% | 

Remaining list, next part:

Row | Structure (SMILES) | activity change, negative = cytotoxicity | Potency
49 | CC(=O)Nc1ccc(NC(=O)CC(C)n2ccc(C)n2)cc1 (configuration not stated) |  | inconclusive: 8.2 µM [rising, partial curve, poor fit]
50 | COc1cc2c(cc1NC(=O)C(Cl)Cl)-c1ccc(NC(=O)C(Cl)Cl)cc1C2 |  | active: 14.6 µM
51 | CCOC(=O)c1c(NC(=S)N2CCOCC2)sc2c1CCN(C(=O)OCC)C2 |  | inconclusive: 10.3 µM [cytotoxic, partial curve]
52 | Cc1cccc(N2C(=O)C(CC(=O)Nc3ccccc3)N(C3CCCCC3)C2=O)c1 (configuration not stated) | inactive: 8.56% | 
53 | CCCN=Cc1sc2ccc(OCC)cc2c1O |  | inconclusive: 16.4 µM [cytotoxic, single point]
54 | FC(F)(F)c1ccc(NCCc2ccccc2)nc1 |  | inconclusive: 29.1 µM [rising, single point]
55 | COc1c(C)cc(S(=O)(=O)N2CCOCC2)c(C)c1C |  | inconclusive: 16.4 µM [cytotoxic, single point]
56 | C#CCN(C[C@H]1[C@H](OC(=O)NCc2ccccc2)[C@H](OC(=O)NCc2ccccc2)C[C@@H](C(=O)OC)[C@H]1C(=O)OC)S(=O)(=O)c1ccc(C)cc1 |  | inconclusive: 14.6 µM [rising, partial curve]
57 | COc1ccc(CCNC(=O)COC(=O)c2cccs2)cc1OC | inconclusive: 0% | 
58 | Nc1[nH][nH]c(=O)c1N=Nc1ccc2c(c1)OCO2 |  | inconclusive: 29.1 µM [cytotoxic, single point]
59 | CCN(CC)C(=O)C1=C(C)N(CCCOC)C(=O)C(CC(=O)NC2CCCCC2)C1 (configuration not stated) | inactive: 2.9% | 
60 | COc1ccc(Cc2nnc(NC(=O)Nc3ccc(C)cc3)s2)cc1OC | inactive: 0% | 
61 | Cc1ccc(S(=O)(=O)N2CCCCC2CCNC(=O)C(=O)NC2CCCC2)cc1 (configuration not stated) |  | inconclusive: 1.16 µM [cytotoxic, full curve]
62 | COc1ccc(C(=O)C[C@@H]2OC[C@H](C)N2S(=O)(=O)c2ccc(C)cc2)cc1OC |  | inconclusive: 4.61 µM [cytotoxic, partial curve]
63 | C[C@H](CO)N1C[C@H](C)[C@H](CN(C)C(=O)Nc2ccc(-c3cccs3)cc2)OCc2cnnn2CCCC1=O | inactive: -11.8% | 
64 | CCc1ccc(N(C(=O)CNC(=O)c2ccco2)C(C(=O)NCC2CCCO2)c2ccccc2)cc1 (configuration not stated) | inconclusive: -18.7% | 
65 | COc1ccc(NC(=O)CN(C)CC(=O)Nc2ccccc2SC)cc1 |  | active: 20.6 µM
66 | O=C(O)CCCn1cc(NC(=O)COc2ccc(F)cc2)cn1 |  | inconclusive: 0.0052 µM [rising, full curve, poor fit]
67 | CCOc1ccc(C(=O)NC(=S)Nc2ccc(NC(=O)CC)cc2)cc1[N+](=O)[O-] |  | inconclusive: 5.17 µM [cytotoxic, partial curve, poor fit]
68 | O=C(C[C@H]1CC[C@H]2[C@@H](COC[C@@H](O)CN2Cc2cc(F)ccc2F)O1)NCc1ccc(Cl)cc1 |  | inconclusive: 11.6 µM [cytotoxic, partial curve]
69 | CCOc1ccc(S(=O)(=O)N/N=C(\C)c2ccc(Cl)c(Cl)c2Cl)cc1 |  | inconclusive: 29.1 µM [cytotoxic, single point]
70 | O=C(CN1CCc2ccccc2C1)Nc1ccccc1C(=O)NC1CC1 | inactive: -4.99% | 
71 | Cc1cccc2c1-c1sc(C(=O)Nc3ccccc3N3CCN(C)CC3)cc1CO2 |  | inconclusive: 29.1 µM [cytotoxic, single point]
72 | C=CC[C@@H](CC(=O)N[C@H](CO)Cc1ccccc1)C(=O)N[C@H](COC(=O)[C@@H](CC=C)CC(=O)OC(C)(C)C)Cc1c[nH]c2ccccc12 |  | inconclusive: 18.4 µM [cytotoxic, partial curve, poor fit]
